# Reference: the supplement of paper PMC12067093, “Discovery and optimisation of a covalent ligand for TRIM25 and its application to targeted protein ubiquitination” (Chemical Science, 2025)
# Some of the results follow.
# Compound: Cc1cc(ccc1-c1ccccc1)C(=O)N1CCCN(CC1)C(=O)CCl [compound 10]
# Assay: probe-labelled cysteine peptide fold change vs DMSO (competition) (log2 fold change); higher = less target engagement (more negative = stronger competition)
# Conditions: THP-1, incubation time: 4 h
# 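Further: competitive profiling in live THP-1 cells: cysteine peptides tagged with an iodoacetamide desthiobiotin (IA-DTB) probe, intensity after compound treatment relative to DMSO-treated cells.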
Target,probe-labelled cysteine peptide fold change (10 µM),probe-labelled cysteine peptide fold change (50 µM)
GPATCH11_Q8N954_195_ACQQLDVQK (UniProt Q8N954),-0.0412,-0.0321
GNAI2_P04899_66_IIHEDGYSEEECR (UniProt P04899),0.0083,0.0719
GNL3_Q9BVP2_131_LYCQELKK (UniProt Q9BVP2),-0.195,-0.305
GLUD1_P00367_376_AKPYEGSILEADCDILIPAASEK (UniProt P00367),-0.0816,0.0748
GLG1_Q92896_950_FCHGILTK (UniProt Q92896),-0.298,0.0885
GNPAT_O15228_668_LEEMLGCK (UniProt O15228),-0.206,-0.0115
GOLPH3_Q9H4A6_108_LQLEACGMR (UniProt Q9H4A6),-0.273,-0.0492
GNB2_P62879_271_ADQELLMYSHDNIICGITSVAFSR (UniProt P62879),0.26,0.282
GPAA1_O43292_266_GGLLCTLQGK (UniProt O43292),-0.168,-0.0244
GNE_Q9Y223_520_TPLSDTLHLPVWVDNDGNCAALAER (UniProt Q9Y223),0.111,0.248
GLG1_Q92896_542_MVEDCEHR (UniProt Q92896),-0.102,0.174
GPD2_P43304_188_LYDLVAGSNCLK (UniProt P43304),-0.32,0.426
GNB1_P62873_149_ELAGHTGYLSCCR (UniProt P62873),0.0749,-0.208
GLRX_P35754_8_AQEFVNCK (UniProt P35754),-0.0439,-0.327
GMPS_P49915_489_ACTTEEDQEK (UniProt P49915),0.00335,-0.0471
GPD1L_Q8N335_104_ICDEITGR (UniProt Q8N335),0.018,0.114
GLCCI1_Q86VQ1_151_SPGSPVCR (UniProt Q86VQ1),0.0854,0.295
GPS1_Q13098_175_GHDDLGDHYLDCGDLSNALK (UniProt Q13098),0.0315,-0.0253
GLO1_Q04760_139_GFGHIGIAVPDVYSACKR (UniProt Q04760),-0.123,-0.303
GPSM1_Q86YR5_128_FDEAAVCCQR (UniProt Q86YR5),-0.159,-0.231
GPATCH8_Q9UKJ3_402_EEGAGATEPEYYHYIPPAHCK (UniProt Q9UKJ3),-0.052,-0.134
GMIP_Q9P107_521_CRECEAFMVSGTECEECFLTCHK (UniProt Q9P107),-0.215,-0.0164
GPATCH8_Q9UKJ3_508_VSETQMCESNSSK (UniProt Q9UKJ3),-0.201,-0.154

# Shown tab-delimited: part of the list above.
Target	probe-labelled cysteine peptide fold change (10 µM)	probe-labelled cysteine peptide fold change (50 µM)
GPSM1_Q86YR5_128_FDEAAVCCQR (UniProt Q86YR5)	-0.159	-0.231
GPATCH8_Q9UKJ3_402_EEGAGATEPEYYHYIPPAHCK (UniProt Q9UKJ3)	-0.052	-0.134
